Laboratory results from US9428732B2, “Compositions and methods for differentiating pluripotent stem cells into primitive blood cells and uses thereof” (Primorigen Biosciences, Inc., priority 2011, dated 2016).
For at least one compound, name, drawing or mass did not settle the structure.

Experiments:
ES and iPS cells [1] = assay: Small molecule screen, CFU-GEMM assays of myeloid progenitors; format: cell-based, human; details: relative to DMSO control; DEAB 10 μM, rapamycin 0.1 μM; FIG. 3D
Procedure: The differentiation cultures were trypsinized at the indicated time points and single-cell suspensions were generated following trypsinization. For the Colony Forming Unit (CFU) assays using methyl cellulose cultures, 25% of the cells were plated in 2 ml of MethoCult H4435 (STEMCELL Technologies, Vancouver, BC) in six-well plates. Alternatively, sorted CD45+, CD43+, CD34+, 7AAD-cells were sorted and plated at 500 cells per 2 ml Methocult media. Cells were incubated for 14 days in a humidified incubator at 37° C. with 5% CO2 and evaluated for colonies by bright-field microscopy (Zeiss (Oberkochen, Germany, www.zeiss.com) Axiovert 200 with a Zeiss Axiocam), Cells were resuspended in PBS supplemented with 2% FBS. For the lymphoid myeloid differentiation assays, either CD45+, CD43+, CD34+, 7AAD-hematopoietic progenitors, or CD45+, CD43+, CD34+, CD38−, CD90+, CD45RA− phenotypic HSCs were plated at 20-40 cells per well onto OP9 and OP9delta feeder lines for B-cell and T-cell differentiation, respectively, as previously described (Nozad Charoudeh H, Tang Y, Cheng M, Cilio C M, Jacobsen S E, Sitnicka E., Identification of an NK/T cell-restricted progenitor in adult bone marrow contributing to bone marrow- and thymic-dependent NK cell, Blood, 2010 Jul. 15; 116(2):183-92. NK cell differentiation as well as myeloid cell differentiation was also detected in this differentiation system. […]

ES and iPS cells [2] = assay: Small molecule screen, FACS of cells differentiated from pluripotent stem cells; format: cell-based, human; details: relative to DMSO control, DEAB 10 μM, rapamycin 0.1 μM
Procedure: Cells from the differentiation cultures were collected at time points indicated and washed in phosphate-buffered saline (PBS) supplemented with 2% FBS. Adherent cells were individualized using TrypLE (Life Technologies, Carlsbad Calif.), passed through a 27.5-gauge needle and filtered through a 40-70 μm cell strainer (BD Falcon, San Diego, Calif., www.bdbiosciences.com). Cells were treated with 7-aminoactinomycin D (7AAD) before analysis, and positive cells were gated out of results. Cells were stained with fluorescence-conjugated antibodies for the hematopoietic stem and progenitor cell markers CD45, CD43, CD34, CD38, CD90; CD45RA. Cells were analyzed on a FACS Canto (BD, Franklin Lakes, N.J., www.bd.com).
A small molecule screen was performed to identify compounds that improve the output of hematopoietic progenitor cells (HPCs; CD45+, CD43+, CD34+) and phenotypic hematopoietic stem cells (HSCs; CD45+, CD43+, CD34+, CD38−, CD90+, CD45RA−) differentiated from pluripotent stem cells. Molecules targeting pathways known or suspected of being important in hematopoiesis were screened. […] Cells were analyzed using fluorescence activated cell sorting (FACS; FIGS. 3A, 3B, and 3C) and CFU-GEMM assays (FIG. 3D). […]

CO[C@H]1C[C@@H]2CC[C@@H](C)[C@@](O)(O2)C(=O)C(=O)N2CCCC[C@H]2C(=O)O[C@H]([C@H](C)C[C@@H]2CC[C@@H](O)[C@H](OC)C2)CC(=O)[C@H](C)/C=C(\C)[C@@H](O)[C@@H](OC)C(=O)[C@H](C)C[C@H](C)/C=C/C=C/C=C/1C [rapamycin]
increased: output of myeloid progenitors (CFU/BFU) (ES and iPS cells [1]) | output of total blood cells (CD45+, CD43+) (ES and iPS cells [2]; FIG. 3C) | output of HSCs (CD45+, CD43+, CD34+, CD38−, CD90+, CD45RA−) (ES and iPS cells [2]; FIGS. 3A and B)
